# Assay results: patent US20250223328A1, “TRUNCATED DOMINANT NEGATIVE CEBPB AND CEBPD PROTEINS AND METHODS OF USE FOR DECREASING VIABILITY OF NEOPLASTIC CELLS” (The Trustees of Columbia University in the City of New York, priority 2022, published 2025)
# Part of at least one peptide drawing is inferred or uncertain, most often the ends. Where no end group is shown, it is not given here.
# Tested on: A375 human melanoma subcutaneous xenografts
# Assay: A375 melanoma subcutaneous xenografts in nude mice: tumor volume and survival
# Assay type: in vivo
# Details: 10 mg/kg intraperitoneally three times per week; study ended at 60 days after tumor inoculation
sequence,measurement,value
RQIKIWFQNRRMKWKKLVELSAENEKLHQRVEQLTR [CP-D-123],Animal survival,prolonged animal survival
